These are yes or no findings as the source states them, for the method shown. Binding seen in cells or lysates may run through a third protein. Binding calls can cover weak binding; strength is not graded here.
Legend:
Assay in all cases: co-IP
[1] = target: 3xFLAG-hTRPA1 C-terminal truncation Δ969 (human) (UniProt O75762)
[2] = target: 3xFLAG-hTRPA1 C-terminal truncation Δ1011 (human) (UniProt O75762)
[3] = target: 3xFLAG-hTRPA1 C-terminal truncation Δ934 (human) (UniProt O75762)

Sequences of proteins named here, by UniProt entry; tags and fusion partners are left off. A change or cut given only in a name is not applied to a line headed by its entry.
UniProt O75762: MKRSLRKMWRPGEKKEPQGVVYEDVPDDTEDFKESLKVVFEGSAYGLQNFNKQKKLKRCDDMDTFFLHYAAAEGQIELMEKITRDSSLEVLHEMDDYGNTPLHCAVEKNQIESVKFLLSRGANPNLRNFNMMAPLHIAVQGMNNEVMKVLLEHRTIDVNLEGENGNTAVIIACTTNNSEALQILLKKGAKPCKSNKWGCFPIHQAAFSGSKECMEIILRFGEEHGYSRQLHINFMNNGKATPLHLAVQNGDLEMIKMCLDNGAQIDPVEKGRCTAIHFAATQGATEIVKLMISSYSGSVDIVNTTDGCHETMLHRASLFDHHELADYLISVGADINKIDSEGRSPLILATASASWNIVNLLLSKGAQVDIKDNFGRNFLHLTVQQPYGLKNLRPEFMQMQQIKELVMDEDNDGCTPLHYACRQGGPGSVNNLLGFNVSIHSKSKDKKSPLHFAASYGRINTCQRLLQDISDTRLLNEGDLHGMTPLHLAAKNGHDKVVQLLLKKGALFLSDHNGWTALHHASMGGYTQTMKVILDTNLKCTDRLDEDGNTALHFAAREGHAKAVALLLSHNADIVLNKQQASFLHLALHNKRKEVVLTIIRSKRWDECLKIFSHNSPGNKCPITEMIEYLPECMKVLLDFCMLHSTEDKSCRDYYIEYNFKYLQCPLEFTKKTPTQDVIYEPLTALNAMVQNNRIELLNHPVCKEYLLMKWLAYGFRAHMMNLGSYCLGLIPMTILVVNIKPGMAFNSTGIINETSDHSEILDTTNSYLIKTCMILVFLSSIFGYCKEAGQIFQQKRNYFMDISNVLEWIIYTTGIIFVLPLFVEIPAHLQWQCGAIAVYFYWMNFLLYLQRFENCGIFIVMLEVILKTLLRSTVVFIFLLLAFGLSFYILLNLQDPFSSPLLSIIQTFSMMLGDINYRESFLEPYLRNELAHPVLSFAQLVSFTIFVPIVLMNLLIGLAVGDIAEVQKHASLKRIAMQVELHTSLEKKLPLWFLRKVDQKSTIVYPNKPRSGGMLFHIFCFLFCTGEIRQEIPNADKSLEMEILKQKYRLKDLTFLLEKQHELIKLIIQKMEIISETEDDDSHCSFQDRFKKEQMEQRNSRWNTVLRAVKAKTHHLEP

Measured: binding

MBP-tagged WT human TRPA1 (from UniProt O75762 1-1119)
binds: [1] | [2] | [3]

From doi:10.1101/2022.01.05.475133 (bioRxiv, 2022)
